From patent publication US20250346630A1, “Engineering Peptides Using Peptide Epitope Linker Evolution” (AGENCY FOR SCIENCE, TECHNOLOGY AND RESEARCH, priority 2022, published 2025) come the findings set out here.

Amino acid sequences for entries named in this document (tags omitted). A change or cut given only in a name is not applied to a line headed by its entry. Chains listed by the source or under a name are the forms on record and can include a tag or linker.
sortase-labelled N-terminally biotinylated eIF4E (P06730, form named): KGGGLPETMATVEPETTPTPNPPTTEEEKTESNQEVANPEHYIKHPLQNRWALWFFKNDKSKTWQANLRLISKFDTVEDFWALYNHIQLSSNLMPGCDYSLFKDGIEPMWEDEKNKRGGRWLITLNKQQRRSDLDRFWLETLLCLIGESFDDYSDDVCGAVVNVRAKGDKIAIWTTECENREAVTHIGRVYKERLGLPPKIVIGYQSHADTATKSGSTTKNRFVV

These are yes or no findings as the source states them, for the method shown. Some binding calls cover weakened binding; strength is not graded here.

The target of the test is sortase-labelled N-terminally biotinylated eIF4E (UniProt P06730). Kind of test: M13 linear 12mer phage selection on immobilised biotinylated eIF4E, NGS abundance heat map, 3 replicate columns [CONT.) D].

SLTYTREFLRSL […]: the binding entry is on record as “binds”.
